Measurements from article PMC10518020, “Structure of the peroxisomal Pex1/Pex6 ATPase complex bound to a substrate” (Nature Communications, 2023).
No constants are given. Whether binding was seen depends on the method and setting. Some binding calls cover weakened binding; strength is not graded here. Sequences can lack the tags named with a protein.

Molecular target: T1, Pex1-Strep2 (S. cerevisiae Pex1, WT) (S. cerevisiae) (UniProt P24004)
T1 sequence: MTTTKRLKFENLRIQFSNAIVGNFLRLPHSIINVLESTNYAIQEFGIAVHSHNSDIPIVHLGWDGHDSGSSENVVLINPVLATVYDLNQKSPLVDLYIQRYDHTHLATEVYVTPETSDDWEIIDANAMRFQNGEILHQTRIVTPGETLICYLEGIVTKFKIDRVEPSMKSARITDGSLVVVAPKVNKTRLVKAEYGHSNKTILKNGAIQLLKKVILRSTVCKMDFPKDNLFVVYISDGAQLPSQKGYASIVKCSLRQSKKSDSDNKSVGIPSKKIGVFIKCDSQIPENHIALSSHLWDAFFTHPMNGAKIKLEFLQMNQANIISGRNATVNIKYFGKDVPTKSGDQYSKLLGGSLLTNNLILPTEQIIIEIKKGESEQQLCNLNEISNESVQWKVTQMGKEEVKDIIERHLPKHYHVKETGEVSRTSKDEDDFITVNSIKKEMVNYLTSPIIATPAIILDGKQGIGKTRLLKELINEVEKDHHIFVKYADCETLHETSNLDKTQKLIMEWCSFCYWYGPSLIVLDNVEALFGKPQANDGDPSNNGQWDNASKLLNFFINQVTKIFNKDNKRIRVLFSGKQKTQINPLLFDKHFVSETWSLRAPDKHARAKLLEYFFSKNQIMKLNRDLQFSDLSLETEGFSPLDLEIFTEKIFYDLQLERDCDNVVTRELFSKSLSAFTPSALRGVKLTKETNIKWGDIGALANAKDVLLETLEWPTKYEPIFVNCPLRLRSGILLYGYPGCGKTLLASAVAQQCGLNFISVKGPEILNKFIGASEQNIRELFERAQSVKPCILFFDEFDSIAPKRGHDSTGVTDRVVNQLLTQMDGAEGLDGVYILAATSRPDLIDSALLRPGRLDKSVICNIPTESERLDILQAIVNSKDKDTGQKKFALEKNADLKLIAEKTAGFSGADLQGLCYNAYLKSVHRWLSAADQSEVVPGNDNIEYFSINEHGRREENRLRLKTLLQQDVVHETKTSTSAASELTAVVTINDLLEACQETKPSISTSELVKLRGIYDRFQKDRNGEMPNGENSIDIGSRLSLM
Experiment: cryo-EM structure; Pex1-Strep2/His-Pex6(E832Q) co-expressed in S. cerevisiae, purified by strep-tactin and SEC with 1-3 mM ATP; no substrate added; single particle cryo-EM, two states from one sample (class 3 single-seam, class 4 twin-seam); both purified

B1: His-Pex6(E832Q) (S. cerevisiae Pex6, Walker B mutant of D2) (enzyme, UniProt P33760 1-1030)
chain: MKASLTFSLSGIYAPCSISRDIYLEYGDKKAECLYGTIRLPQYGPGCTPGKIVHCVLDDSLPFCSIVVPSKLFGFMPTQPTMDFCYFEPILDNVVPVLDSVTFLINEQLYSKLMDLPQEMQQIQFLHYKYNINSMETVVHSRDILTSGLCQILNCSPFPQGLVDFTETQLILVNDTEQKLSALKYANEDEEYALPKIGTNSALSIDLESLPCTISRDLLRPAPHINDDNSIYAFTDAETLLRLDVTSGSFITVSNMGCVRLVKLFVLLLPNGFKKRTIYAPPKIIASFPDCSVVTISKSNIGHTDIPIANQVFISRVGGWLQSQKCFQNIILTTLKKFFSESKRILCQNDLIPIAFDSSMADLNIAEENDESDDEDELGQYYKNDSLVWFFVTSAELDCFSKDNSHFIIDPNRTKLITTNITNRRPLPLSRSNLQRYYGFAETFYYDLHIFPYVRQLVNILETSFNCSQRGITLNASVLLHSTTNNVGKATMVRFASKYLGIHLLEIDCLSLTSNSRQLDSTSKIIGYIRAKCENVLPYASPAVIFLAHLDSILLDVNANQDPEAIKLQKSINFEMSKLLDDFTFKFPGTTFVGSVNNIDNVPSSFRSHMRFEILVPVPSEAQRLRIFQWYLSSHELNRDVQQKVPVSYMDNISFSSLSSYSAGLTPLDIKSIVETARMTATARFYQESKKCGWLPQSILITQEDLSKATSKARNEFSVSIGAPQIPNVTWDDIGGIDFVKGEILDTIDMPLKHPELFTSGMKKRSGILFYGPPGTGKTLMAKAIATNFSLNFFSVKGPELLNMYIGESEANVRRVFQKAREAKPCVIFFDQIDSVAPKRGNQGDSGGVMDRIVSQLLAELDGMSTDADGVFVIGATNRPDLLDEALLRPGRFDKLLYLGIPDTDTKQLNILEALTRKFVLDNDVKLIELAKLCPFNYTGADFYALCSDAMLNAMSRIARMVEKKVSQHNELTGENISTRRWFDKIATKEDTKVVVKMEDFLKAQEQLTPSVSRAELNHYEAVRANFEGA
binding: binds
